PubChem BioAssay AID1224826 – NIAID – 2016
Test: 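Genes that change LPS-induced Tnf promoter activity in mouse macrophages when knocked down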 (primary screen). Cell system: RAW264.7 G9 macrophages from mouse bearing reporters for p65 (GFP) and the Tnf promoter (mCherry). Knock-down reagent: siRNA pool against mouse genes, 100 nM. Timing: 16 h of LPS stimulation, after 2 days of siRNA transfection. Challenge: bacterial lipopolysaccharide (Salmonella minnesota R595), 10 ng/ml. Measurement: 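Nuclear mCherry signal of the Tnf promoter reporter measured by imaging after background removal, scaled to each plate median and turned into robust z-scores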. Reading the numbers: Tnf reporter robust z-score: higher = stronger Tnf promoter reporter signal after LPS; Tnf reporter intensity: higher = stronger Tnf promoter reporter signal. Call rule: 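a well counts as active at a score of -1.3 or below (Tlr4 knock-down control median) or above 3 (raised signal); controls and wells holding fewer than 50 cells are excluded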. Calls: active = Tnf reporter clearly lowered or raised; inactive = no clear change in Tnf reporter.
This is one part, drawn at random, of about 17,000 reagents tested. About 1,110 of all reagents (6.6%) count as active. 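Active means lowered or raised reporter signal; replicate intensities are raw and not normalised per plate.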 No sequences are given here.

| gene | Tnf reporter robust z-score | fewer than 50 cells in well | Tnf reporter intensity, replicate 1 | Tnf reporter intensity, replicate 2 | Call |
| --- | --- | --- | --- | --- | --- |
| Tacc3 | -1.07 | enough cells in well | 152 | 127 | inactive |
| Or6n1 | 0.64 | enough cells in well | 89.4 | 143 | inactive |
| Pcdhga1 | 0.34 | enough cells in well | 153 | 159 | inactive |
| Adipor1 | 1.25 | enough cells in well | 365 | 97 | inactive |
| Mycbpap | 3.39 | enough cells in well | 423 | 262 | active |
| 2010106E10Rik | – | fewer than 50 cells per well; well left out of calls | 242 | 74.4 | inactive |
| Adgrg2 | 0.2 | enough cells in well | 222 | 329 | inactive |
| Hr | -0.74 | enough cells in well | 205 | 117 | inactive |
| Dusp14 | 0.76 | enough cells in well | 285 | 266 | inactive |
| Shc1 | -0.15 | enough cells in well | 183 | 81.3 | inactive |
| Etnk2 | – | fewer than 50 cells per well; well left out of calls | 105 | 85.9 | inactive |
| Rnf5 | -0.28 | enough cells in well | 117 | 114 | inactive |
| Klhl25 | 0.35 | enough cells in well | 231 | 231 | inactive |
| Epc2 | -1.03 | enough cells in well | 115 | 120 | inactive |
| Atxn7l1 | 1 | enough cells in well | 229 | 91.4 | inactive |
| Ppp1r35 | – | fewer than 50 cells per well; well left out of calls | 120 | 74.5 | inactive |
| Rb1 | -0.5 | enough cells in well | 275 | 158 | inactive |
| Stx16 | 0.62 | enough cells in well | 217 | 175 | inactive |
| Asb6 | -0.47 | enough cells in well | 131 | 151 | inactive |
| Stk33 | 0.19 | enough cells in well | 183 | 143 | inactive |
| Tpst2 | – | fewer than 50 cells per well; well left out of calls | 0 | 77.6 | inactive |
| Pgm2 | -1.32 | enough cells in well | 88.7 | 67.2 | active |
| Lars2 | 1.35 | enough cells in well | 267 | 200 | inactive |
| Ubr2 | 0.66 | enough cells in well | 262 | 273 | inactive |

Part of the list above, reformatted.
Pcdhga1
- Tnf reporter robust z-score: 0.34
- fewer than 50 cells in well: enough cells in well
- Tnf reporter intensity, replicate 1: 153
- Tnf reporter intensity, replicate 2: 159
- Call: inactive

Adipor1
- Tnf reporter robust z-score: 1.25
- fewer than 50 cells in well: enough cells in well
- Tnf reporter intensity, replicate 1: 365
- Tnf reporter intensity, replicate 2: 97
- Call: inactive
